Laboratory results as given in PMC9792576.
These are yes or no findings as the source states them, for the method shown. Binding seen in cells or lysates may run through a third protein. Some entries that bind do so weakly or less than the wild type. For part of these data: Sequences can lack the tags named with a protein.

Protein sequences, listed by entry. Tags and fused reporters are not part of them.
UniProt B2RWS6: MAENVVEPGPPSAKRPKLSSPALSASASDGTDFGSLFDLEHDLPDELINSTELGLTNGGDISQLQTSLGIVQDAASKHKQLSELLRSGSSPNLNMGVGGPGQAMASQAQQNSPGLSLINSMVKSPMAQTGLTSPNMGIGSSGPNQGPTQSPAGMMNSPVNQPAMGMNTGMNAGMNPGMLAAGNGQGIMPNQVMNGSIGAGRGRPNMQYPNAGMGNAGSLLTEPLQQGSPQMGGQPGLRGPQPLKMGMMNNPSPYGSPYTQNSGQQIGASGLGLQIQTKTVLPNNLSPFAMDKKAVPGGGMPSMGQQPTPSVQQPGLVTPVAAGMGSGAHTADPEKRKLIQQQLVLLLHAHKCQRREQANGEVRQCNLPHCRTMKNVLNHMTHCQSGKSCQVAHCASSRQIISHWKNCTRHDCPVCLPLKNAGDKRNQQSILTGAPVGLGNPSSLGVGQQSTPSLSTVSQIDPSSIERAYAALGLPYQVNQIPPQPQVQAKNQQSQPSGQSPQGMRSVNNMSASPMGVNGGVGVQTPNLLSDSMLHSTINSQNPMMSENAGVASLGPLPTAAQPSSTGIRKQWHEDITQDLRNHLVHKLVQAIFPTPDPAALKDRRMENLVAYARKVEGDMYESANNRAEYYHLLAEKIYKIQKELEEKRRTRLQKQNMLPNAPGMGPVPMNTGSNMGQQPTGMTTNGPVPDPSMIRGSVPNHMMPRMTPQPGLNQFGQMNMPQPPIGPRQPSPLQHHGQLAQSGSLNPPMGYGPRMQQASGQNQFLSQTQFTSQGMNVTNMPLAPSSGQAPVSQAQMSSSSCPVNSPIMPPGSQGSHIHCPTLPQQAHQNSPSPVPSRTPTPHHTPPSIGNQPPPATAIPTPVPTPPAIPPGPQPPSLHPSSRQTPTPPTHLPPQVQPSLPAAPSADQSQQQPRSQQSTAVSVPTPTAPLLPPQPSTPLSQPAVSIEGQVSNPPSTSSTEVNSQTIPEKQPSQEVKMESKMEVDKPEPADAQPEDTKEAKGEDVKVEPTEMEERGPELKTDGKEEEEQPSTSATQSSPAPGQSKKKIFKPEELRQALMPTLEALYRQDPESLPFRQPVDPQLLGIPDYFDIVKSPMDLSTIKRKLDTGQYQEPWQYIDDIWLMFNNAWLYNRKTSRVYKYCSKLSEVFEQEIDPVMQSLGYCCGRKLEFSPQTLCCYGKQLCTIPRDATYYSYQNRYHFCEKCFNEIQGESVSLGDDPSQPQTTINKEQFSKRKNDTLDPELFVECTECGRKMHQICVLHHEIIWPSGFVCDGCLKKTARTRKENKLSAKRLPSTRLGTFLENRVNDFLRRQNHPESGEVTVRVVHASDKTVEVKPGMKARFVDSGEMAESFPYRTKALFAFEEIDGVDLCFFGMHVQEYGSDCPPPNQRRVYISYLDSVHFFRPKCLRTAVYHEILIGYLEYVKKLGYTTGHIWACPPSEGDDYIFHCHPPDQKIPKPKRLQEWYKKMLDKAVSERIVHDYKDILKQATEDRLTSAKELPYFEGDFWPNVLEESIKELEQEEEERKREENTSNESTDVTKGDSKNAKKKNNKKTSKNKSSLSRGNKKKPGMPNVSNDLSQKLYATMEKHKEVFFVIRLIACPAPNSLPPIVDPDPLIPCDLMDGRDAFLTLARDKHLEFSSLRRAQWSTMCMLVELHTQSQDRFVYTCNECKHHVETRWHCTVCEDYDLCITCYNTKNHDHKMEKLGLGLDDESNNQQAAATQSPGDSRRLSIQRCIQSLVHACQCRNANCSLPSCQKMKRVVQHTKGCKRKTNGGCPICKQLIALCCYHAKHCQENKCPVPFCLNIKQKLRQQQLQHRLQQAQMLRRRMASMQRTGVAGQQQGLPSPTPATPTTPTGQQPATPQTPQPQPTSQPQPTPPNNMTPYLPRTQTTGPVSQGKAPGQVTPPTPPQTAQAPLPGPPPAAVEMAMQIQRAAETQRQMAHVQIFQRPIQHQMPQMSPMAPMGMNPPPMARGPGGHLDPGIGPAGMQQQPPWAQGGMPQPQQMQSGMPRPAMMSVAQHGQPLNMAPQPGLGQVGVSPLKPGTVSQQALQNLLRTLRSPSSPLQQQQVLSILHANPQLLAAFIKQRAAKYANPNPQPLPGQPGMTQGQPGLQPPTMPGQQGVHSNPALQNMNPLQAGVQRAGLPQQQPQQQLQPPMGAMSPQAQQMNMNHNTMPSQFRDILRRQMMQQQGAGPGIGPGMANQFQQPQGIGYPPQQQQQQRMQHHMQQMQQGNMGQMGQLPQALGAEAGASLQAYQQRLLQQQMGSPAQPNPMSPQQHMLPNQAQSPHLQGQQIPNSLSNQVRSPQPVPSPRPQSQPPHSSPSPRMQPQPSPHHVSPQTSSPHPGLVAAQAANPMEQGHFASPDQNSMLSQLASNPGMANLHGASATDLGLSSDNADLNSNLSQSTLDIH
UniProt Q09472: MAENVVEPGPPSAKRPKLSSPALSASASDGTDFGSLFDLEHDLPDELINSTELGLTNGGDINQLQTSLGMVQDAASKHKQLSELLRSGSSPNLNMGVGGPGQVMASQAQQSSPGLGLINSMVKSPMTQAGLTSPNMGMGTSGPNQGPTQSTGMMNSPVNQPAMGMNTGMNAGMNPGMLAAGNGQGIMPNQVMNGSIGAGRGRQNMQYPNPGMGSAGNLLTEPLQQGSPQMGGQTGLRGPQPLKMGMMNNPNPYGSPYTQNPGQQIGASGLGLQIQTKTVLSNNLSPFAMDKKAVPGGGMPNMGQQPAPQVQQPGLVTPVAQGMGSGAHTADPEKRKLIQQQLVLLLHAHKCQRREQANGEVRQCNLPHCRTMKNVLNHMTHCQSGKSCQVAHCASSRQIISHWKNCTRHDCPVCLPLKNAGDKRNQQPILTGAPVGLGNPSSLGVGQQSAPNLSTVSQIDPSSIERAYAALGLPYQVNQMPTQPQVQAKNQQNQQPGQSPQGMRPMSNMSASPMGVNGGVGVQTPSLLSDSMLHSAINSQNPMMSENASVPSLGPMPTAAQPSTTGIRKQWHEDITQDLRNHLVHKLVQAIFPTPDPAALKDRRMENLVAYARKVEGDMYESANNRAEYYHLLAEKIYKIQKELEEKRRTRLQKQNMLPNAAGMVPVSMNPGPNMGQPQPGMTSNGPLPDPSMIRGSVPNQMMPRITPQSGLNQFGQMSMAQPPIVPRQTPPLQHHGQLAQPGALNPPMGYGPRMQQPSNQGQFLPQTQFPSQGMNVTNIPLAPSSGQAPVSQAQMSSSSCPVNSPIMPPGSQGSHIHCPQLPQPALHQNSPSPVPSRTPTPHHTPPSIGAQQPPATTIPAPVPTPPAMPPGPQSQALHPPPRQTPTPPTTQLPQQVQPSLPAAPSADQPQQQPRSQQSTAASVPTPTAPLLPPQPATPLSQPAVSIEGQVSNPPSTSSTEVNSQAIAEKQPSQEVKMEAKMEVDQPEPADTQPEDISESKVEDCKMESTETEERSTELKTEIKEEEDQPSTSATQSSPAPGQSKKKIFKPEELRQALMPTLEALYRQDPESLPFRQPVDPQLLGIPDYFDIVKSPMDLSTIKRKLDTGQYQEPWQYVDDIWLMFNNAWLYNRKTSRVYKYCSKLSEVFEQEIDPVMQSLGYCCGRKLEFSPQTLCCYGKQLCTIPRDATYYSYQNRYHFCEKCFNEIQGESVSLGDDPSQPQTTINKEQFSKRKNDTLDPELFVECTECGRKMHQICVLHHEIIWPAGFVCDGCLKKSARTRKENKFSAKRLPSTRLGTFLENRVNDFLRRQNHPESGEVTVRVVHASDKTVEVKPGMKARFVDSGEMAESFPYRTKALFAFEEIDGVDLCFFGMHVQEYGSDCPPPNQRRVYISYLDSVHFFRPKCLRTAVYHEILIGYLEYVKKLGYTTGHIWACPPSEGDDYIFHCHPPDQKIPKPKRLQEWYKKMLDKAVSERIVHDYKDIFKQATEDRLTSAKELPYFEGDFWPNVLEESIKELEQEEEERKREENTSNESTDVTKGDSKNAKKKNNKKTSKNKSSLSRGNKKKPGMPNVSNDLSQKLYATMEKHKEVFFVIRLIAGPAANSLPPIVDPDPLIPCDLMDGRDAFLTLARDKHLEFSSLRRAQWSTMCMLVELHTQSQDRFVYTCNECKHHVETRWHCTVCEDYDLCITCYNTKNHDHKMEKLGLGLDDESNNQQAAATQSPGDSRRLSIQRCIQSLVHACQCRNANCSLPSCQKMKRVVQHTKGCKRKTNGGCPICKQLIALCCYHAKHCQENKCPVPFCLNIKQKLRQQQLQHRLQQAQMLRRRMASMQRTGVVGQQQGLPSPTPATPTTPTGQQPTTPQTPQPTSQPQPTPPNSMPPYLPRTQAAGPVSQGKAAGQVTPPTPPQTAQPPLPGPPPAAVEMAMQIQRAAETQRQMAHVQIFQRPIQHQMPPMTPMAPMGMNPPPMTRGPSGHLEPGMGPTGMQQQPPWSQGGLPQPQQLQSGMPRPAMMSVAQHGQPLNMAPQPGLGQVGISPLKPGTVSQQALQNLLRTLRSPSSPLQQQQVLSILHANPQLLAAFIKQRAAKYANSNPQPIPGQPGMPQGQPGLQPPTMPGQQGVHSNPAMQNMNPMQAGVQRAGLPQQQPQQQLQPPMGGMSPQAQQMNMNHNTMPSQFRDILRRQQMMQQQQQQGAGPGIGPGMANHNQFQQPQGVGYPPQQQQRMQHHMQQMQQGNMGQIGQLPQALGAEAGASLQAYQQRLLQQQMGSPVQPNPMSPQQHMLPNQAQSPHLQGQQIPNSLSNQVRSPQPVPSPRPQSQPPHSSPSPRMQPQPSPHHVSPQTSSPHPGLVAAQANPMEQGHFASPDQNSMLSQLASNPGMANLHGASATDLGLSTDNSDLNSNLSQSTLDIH

Experiments:
Flag-DLD = target: T1, Flag-DLD (UniProt O08749); test: co-IP; lysates of HEK293 cells transfected with HA-P300 and Flag-DLD (RIPA buffer with protease inhibitors); reciprocal immunoprecipitation, overnight at 4 °C, protein-G/A agarose
T1 sequence: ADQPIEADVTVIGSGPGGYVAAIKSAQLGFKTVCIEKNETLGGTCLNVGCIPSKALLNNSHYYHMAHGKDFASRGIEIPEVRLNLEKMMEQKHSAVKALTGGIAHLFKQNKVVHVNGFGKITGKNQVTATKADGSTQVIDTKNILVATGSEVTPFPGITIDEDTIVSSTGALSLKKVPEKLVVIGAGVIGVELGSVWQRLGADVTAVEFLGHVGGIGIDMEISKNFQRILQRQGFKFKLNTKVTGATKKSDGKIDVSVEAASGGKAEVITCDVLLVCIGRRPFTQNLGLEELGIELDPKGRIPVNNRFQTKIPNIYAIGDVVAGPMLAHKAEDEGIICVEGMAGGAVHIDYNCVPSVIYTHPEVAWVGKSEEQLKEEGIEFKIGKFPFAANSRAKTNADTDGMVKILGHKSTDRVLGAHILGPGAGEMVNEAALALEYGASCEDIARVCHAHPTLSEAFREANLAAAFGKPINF

[1] = target: P300, endogenous in mouse adult cardiomyocytes (mouse (endogenous in adult cardiomyocytes)) (UniProt B2RWS6); test: co-IP; lysates of mouse adult cardiomyocytes (RIPA buffer with protease inhibitors); immunoprecipitated with anti-DLD and probed with anti-P300, and inversely; overnight at 4 °C, protein-G/A agarose
HA-P300 = HA-P300 (UniProt Q09472); test: co-IP; lysates of HEK293 cells transfected with HA-P300 and Flag-DLD (RIPA buffer with protease inhibitors); reciprocal immunoprecipitation, overnight at 4 °C, protein-G/A agarose

Question: HA-P300 (from UniProt Q09472 1-2414) was tested. Which binding (Flag-DLD) did it give?
Answer: Its binding is “binds”.

B1: Dihydrolipoamide dehydrogenase (DLD), endogenous in mouse adult cardiomyocytes (protein, UniProt O08749 36-509)
chain: T1 sequence
Question: For B1, which binding [1] is on record?
Answer: Its binding is “binds”.

B2: Flag-DLD (protein, UniProt O08749 36-509)
chain: T1 sequence
Question: How did the binding (HA-P300) turn out when B2 was run?
Answer: Its binding is “binds”.
